In all, about 33,000 sequences were measured (“E-score (-0.5 to 0.5)”: median about -0.0059, highest 2% from about 0.26 on). Some of the results follow.
What follows are sequences tested against T1, Cin5 (UniProt P40917) (assay: PBM E-score (8-mer binding enrichment) (E-score (-0.5 to 0.5)); higher = stronger / more preferred TF binding). Details: protein concentration: 100 nM; construct: GST-full length.
T1 sequence: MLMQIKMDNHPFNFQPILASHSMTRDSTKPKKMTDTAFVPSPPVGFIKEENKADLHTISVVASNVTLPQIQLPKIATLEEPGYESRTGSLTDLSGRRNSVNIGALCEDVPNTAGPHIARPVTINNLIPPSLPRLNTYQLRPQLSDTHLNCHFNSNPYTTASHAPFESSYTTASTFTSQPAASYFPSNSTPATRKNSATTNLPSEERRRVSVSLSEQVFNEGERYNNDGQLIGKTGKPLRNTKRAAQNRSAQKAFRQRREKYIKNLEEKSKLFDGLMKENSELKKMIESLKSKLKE
How it was run: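 For each ungapped eight-base word taken together with its reverse complement, the Universal PBM Analysis Suite assigned an E-score. Binding data came from GST-tagged yeast transcription factors, applied at about 100-200 nM, on universal all-10-mer Agilent arrays made double-stranded by primer extension. Fluorescent anti-GST marked bound protein, and scans were normalised with masliner.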

Sequence | PBM E-score
AAATGCCT | -0.0215
GACATGTA | 0.164
GGGGCAAA | -0.0144
GCCGAAGA | 0.0739
ACCACAAC | 0.148
ATTTAGCG | -0.0297
ACTGCATA | 0.0427
CCGCCCAG | -0.114
GACTGCTA | -0.114
CTGGGCTC | -0.2
ACTTAACT | 0.175
CAATGGAC | 0.051
CTCGGGCC | -0.103
CCCAGACC | -0.167
CGAGTCCA | -0.183
GAGCGAAA | 0.0812
GACCGTGC | -0.234
CCGTCTCC | -0.165
CAGGAGCG | -0.0881
AAGGGTGA | -0.0502
GTGAGCGA | -0.0285
AGGCTGAA | -0.148
AGAGACCC | -0.137
ACTCGTAT | 0.114
CACACTAA | 0.206

Sequence | PBM E-score
AAGTACGA | 0.202
GGGACGGA | -0.282
CAGGCATA | -0.108
GATAGCAC | -0.0042
TCCCACCA | -0.166
CGGAACAG | 0.205
GAAGCCGC | 0.00485
GACTGCTC | -0.083
ATGTATCA | 0.176
AAAATGTT | 0.035
GTAAATCA | 0.284
GCTGGACC | -0.181
GAGTAATC | 0.139
AGAATCAG | 0.17
AGTGCTCC | -0.236
CGAACCAC | -0.0183
AACCGATT | 0.121
AGACTACG | -0.272
GAGGCTCA | -0.263
AAATATAG | 0.224
GCATACAC | -0.0109
CATTTTGA | -0.0425
CGACCCCG | -0.263
CGCTTAAA | 0.117
TAAGGATA | 0.117

Sequence | PBM E-score
ATTATTCA | 0.262
CTCCCAGC | -0.133
CCTTTATC | -0.176
TAAGTGTA | -0.0251
GCTGGGAA | -0.0863
ATCTCTCA | 0.216
CGTAACGA | 0.00356
CGTTCGCA | -0.084
CCGGGTAG | -0.0422
ACTGCGGC | -0.0794
TTAGCCAA | 0.0774
TAACAGAA | 0.0994
CGCACCCC | -0.0847
CGGTTGCC | -0.0162
TATCTTCA | 0.0305
CGGAATAG | 0.173
GAGAGAAC | -0.0169
CGCAGGGC | -0.0642
ACTGGAAT | 0.122
AATGTTAG | 0.00305
GCTCCTGA | -0.0807
CACAAGCG | -0.0171
AATCAATG | 0.202
GGTGCTAA | -0.0169
GTGTGAGA | -0.0466

Sequence | PBM E-score
AATCTACG | 0.0253
CACAACTA | 0.211
ATGGTTGA | 0.158
ACGGCCAC | -0.0405
AATTCAGG | 0.145
CGCGTGGC | -0.243
CTCACAAA | 0.108
CAGTGTAC | -0.11
TAACAATA | 0.273
CCTCTACA | -0.153
AAAGTTGA | -0.0751
ATGTTTGG | 0.0566
CCAACAAC | -0.041
AAGCGCCG | -0.0615
GATCTTGA | 0.0786
GGACGAAA | 0.0216
TAAAAGCA | 0.0338
AGAATAAT | 0.211
TCTTGGAA | 0.0135
AGGCCACC | -0.0394
AGGCTCAC | -0.12
GACCCCCC | -0.46
ATACTTCG | 0.129
CTTCGGAA | 0.152
CACTTAAA | 0.0467

Sequence | PBM E-score
AGCATTTC | 0.092
GTGGGTTA | -0.0483
CATAATAC | 0.22
TCAAAGAA | -0.15
CAGATATG | 0.161
ATTCTAGC | -0.0844
GAAGGGTA | 0.021
GCCATGCC | -0.0136
GCATTGGA | 0.0591
ATACTAAT | 0.156
AATCCCAC | -0.0232
GCTCCAGA | -0.182
CCCCAGCC | -0.121
CGTCGCCC | -0.253
ATGTGGGC | 0.103
CATTACGC | 0.0481
ACGGACGG | -0.0205
CGATAGGA | -0.0522
CACAGCTA | -0.081
AAGCGATG | -0.0376
GAAAACAA | 0.163
TGGGCCAA | -0.136
GGAGATTA | 0.0317
CAAGATAC | 0.0195
CAGGTGGG | -0.0107

Part of the list above, in markdown.

| Sequence | PBM E-score |
| --- | --- |
| GCATTGGA | 0.0591 |
| ATACTAAT | 0.156 |
| AATCCCAC | -0.0232 |
| GCTCCAGA | -0.182 |

More entries follow.

Sequence | PBM E-score
ATAAGCAT | 0.118
ATGTATAA | 0.248
ATGGAAGA | 0.0345
TGAACGCA | 0.0549
CGGTGATC | -0.209
AATCTTCG | 0.0754
CTATCTCC | 0.148
AGCCGACA | -0.106
AGCGACAC | -0.00713
AACTGTCG | -0.058
ACGGCTGA | 0.0312
AATCCTCC | -0.144
CCTTCTTC | -0.107
GAGCCCCC | -0.384
CCTTGCTA | 0.0914
CAAGCGGA | -0.0401
ACGGCTCT | -0.168
ATCCCCGA | 0.00677
CAATAAGA | 0.143
ATACTTCA | 0.129
ATCTTAAA | 0.146
CCTCATTA | 0.237
TCGCCAAA | -0.00891
ATTTGCTG | 0.153
AGTTCTCG | 0.182

Sequence | PBM E-score
AATATCAC | 0.204
AAGTCAAC | 0.0456
CAGCGACC | -0.239
AAAGGCAT | 0.0014
CTGCGATC | -0.0989
AGCTGAGC | -0.133
GGAGGCGA | -0.187
AATCCTTG | 0.158
AACGCCCC | -0.0624
ATCAGAAA | 0.0234
ATTCTCAG | 0.00598
AATAGGGC | -0.197
ACTTTCAT | 0.0836
CAGGTGGA | -0.188
TGTAACAA | 0.1
CGTCTGAC | -0.0634
CTAGTGAG | -0.0621
CTTAACTA | 0.227
ATCTTAAG | -0.00288
GAAAAAGC | -0.0691
ACGAAAAG | 0.0371
CAACTGAC | -0.114
